Values from PubChem BioAssay AID652243 (Drosophila RNAi Screening Center, 2013).

Purpose: 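Fly regulators of androgen-dependent reporter output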 (primary screen)
Cell system: Drosophila S2R+ cells
Knock-down reagent: long dsRNA against Drosophila genes
Timing: 72 h (48 h, then 24 h hormone)
Treatment: synthetic androgen R1881 at 10 nM for 24 h
Detection: 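Per-well raw luminescence of the androgen-driven firefly reporter and of the Renilla control, two replicates each, without normalisation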
Direction: firefly reporter light: higher = more light from androgen-responsive reporter; Renilla control light: higher = more constitutive control signal (cell number, transfection)
Active means: 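Across duplicate plates, a knock-down whose log firefly/Renilla ratio shifted a set fold down or up from the GFP/LacZ control mean was a hit; the downward cut appears as both 1.5 and 3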
Meaning of the calls: active = hit: reporter lowered or raised; inactive = no hit
In all, the deposit lists about 24,000 reagents; below is an unselected part of those that have a named target and a result. Of all reagents, 246 (1%) are marked active. 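Plates not normalised; calls are printed but the firefly/Renilla ratio behind them is not deposited; fold cut for lowering reported inconsistently.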 Raw values are not corrected between plates. Names joined by + are all predicted targets of the reagent. Not given: the amount of reagent.

no.	predicted target	DRSC id	firefly reporter light, replicate 1	firefly reporter light, replicate 2	Renilla control light, replicate 1	Renilla control light, replicate 2	Outcome
1	CG30269	DRSC04158	3.22e5	3.59e5	2.34e6	1.86e6	inactive
2	Fdx1	DRSC11167	2.11e5	1.50e5	2.63e6	2.38e6	inactive
3	Fdx1	DRSC28052	3.08e5	2.68e5	1.31e6	1.10e6	inactive
4	Sobp	DRSC07312	4.27e5	4.37e5	1.12e6	1.96e6	inactive
5	Sobp	DRSC24534	6.04e5	5.35e5	1.16e6	1.03e6	inactive
6	msl-1	DRSC03573	1.12e5	1.05e5	1.06e6	1.07e6	inactive
7	eyg	DRSC23136	1.04e6	1.56e6	2.13e6	2.32e6	inactive
8	eyg	DRSC26636	3.26e5	2.39e5	5.38e5	4.86e5	inactive
9	CG10177	DRSC14201	1.60e5	1.64e5	2.39e6	2.28e6	inactive
10	CG10177	DRSC27888	6.76e5	4.82e5	2.58e6	1.72e6	inactive
11	Gr39a	DRSC01841	2.15e5	2.38e5	7.43e5	3.58e5	inactive
12	Gr39a	DRSC01842	1.58e5	1.16e5	4.63e5	4.08e5	inactive
13	Gr39a	DRSC27181	2.24e5	3.04e5	6.57e5	5.84e5	inactive
14	Ekar	DRSC17161	2.68e5	3.11e5	3.66e6	2.98e6	inactive
15	Ekar	DRSC24931	1.10e6	1.15e6	9.14e5	1.27e6	inactive
16	st	DRSC11399	14668	33015	3.02e5	2.84e5	inactive
17	st	DRSC28257	2.80e5	4.92e5	8.33e5	1.68e6	inactive
18	Trap1	DRSC05019	1.05e6	4.53e5	8.42e5	7.40e5	inactive
19	pncr003:2L (retired record)	DRSC22149	6.08e5	8.10e5	1.70e6	1.66e6	inactive
20	pncr003:2L (retired record)	DRSC29855	9.26e5	6.83e5	1.84e6	1.31e6	inactive
21	pncr003:2L (retired record)	DRSC39126	6.92e5	5.51e5	1.61e6	2.27e6	inactive
22	Rgk1	DRSC05785	93931	92683	2.36e5	3.07e5	inactive
23	Rgk1	DRSC05786	1.09e5	1.12e5	2.58e5	4.01e5	inactive
24	Rgk1	DRSC07343	69467	74602	1.21e6	9.47e5	inactive
25	Rgk1	DRSC23535	6.39e5	5.38e5	8.00e5	8.12e5	inactive
26	Rgk1	DRSC25970	4.94e5	4.83e5	7.13e5	6.93e5	inactive
27	CG13728	DRSC10056	2.14e5	1.63e5	1.81e6	1.96e6	inactive
28	Rbp1-like	DRSC19828	5.71e5	5.51e5	3.22e6	4.16e6	inactive
29	Rbp1-like	DRSC21938	4.60e5	5.06e5	1.46e6	1.26e6	inactive
30	Rbp1-like	DRSC22075	5.72e5	5.02e5	3.53e5	3.96e5	inactive
31	Rbp1-like	DRSC25442	9.36e5	6.20e5	6.96e5	7.57e5	inactive
32	Rbp1-like	DRSC26949	3.85e5	3.19e5	6.57e5	3.38e5	inactive
33	Cand1	DRSC01992	9.38e5	9.80e5	1.70e6	1.54e6	inactive
34	Gr94a	DRSC13597	89143	64403	1.55e5	1.86e5	inactive
35	CG32579	DRSC19872	6.19e5	5.10e5	2.99e6	3.02e6	inactive
36	parvin	DRSC19468	1.08e5	64744	7.07e5	2.65e5	inactive
37	parvin	DRSC28956	3.53e5	3.62e5	1.21e6	1.02e6	inactive
38	CG33783	DRSC37804	9.29e5	4.25e5	1.73e6	5.93e5	inactive
39	acj6	DRSC20304	1.18e5	1.33e5	9.15e5	7.09e5	inactive
40	acj6	DRSC29003	4.60e5	4.40e5	1.14e6	1.27e6	inactive
41	acj6	DRSC36590					inactive
42	rk	DRSC03602	2.13e5	2.46e5	1.94e6	2.51e6	inactive
43	CG6321	DRSC10623	9.98e5	7.10e5	1.06e6	8.74e5	inactive
44	eve	DRSC24980	4.11e5	4.29e5	6.01e5	5.52e5	inactive
45	CG1635	DRSC15131	93812	67674	6.75e5	4.59e5	inactive
46	CG1635	DRSC25487	1.37e6	1.05e6	7.10e5	6.81e5	inactive
47	CG17199	DRSC15192	2.50e5	3.02e5	2.74e6	2.75e6	inactive
48	Rab21	DRSC20968	1.81e5	1.93e5	4.81e5	4.20e5	inactive
49	Rab21	DRSC28617	3.85e5	4.56e5	1.52e6	2.01e6	inactive
50	Taf7	DRSC15445	1.19e5	47948	2.23e6	8.05e5	inactive
51	Taf7	DRSC26720	1.69e5	2.23e5	6.72e5	8.81e5	active
52	bgm	DRSC03495	1.05e6	1.19e6	1.48e6	1.58e6	inactive
53	bgm	DRSC27103	4.86e5	3.95e5	9.26e5	6.82e5	inactive
54	CG6051	DRSC15956	62512	1.14e5	6.98e5	8.10e5	inactive
55	CG6051	DRSC25123	8.59e5	5.95e5	1.15e6	1.06e6	inactive
56	levy	DRSC04289	3.10e5	2.55e5	1.99e6	1.30e6	inactive
57	mira	DRSC16998	49057	64884	7.37e5	8.46e5	inactive
58	mira	DRSC26837	4.79e5	3.81e5	9.29e5	6.63e5	inactive
59	CG17349	DRSC02610	1.70e5	2.08e5	1.64e6	1.56e6	inactive
60	Fign	DRSC00592	8.37e5	9.73e5	1.90e6	1.97e6	inactive
61	bdwf	DRSC15532	56525	1.50e5	4.42e5	9.13e5	inactive
62	CG17261	DRSC00498	88882	1.06e5	7.15e5	8.32e5	inactive
63	Cpr76Bb	DRSC11061	2.24e5	1.98e5	2.27e6	1.88e6	inactive
64	Cpr76Bb	DRSC22870	5.00e5	9.27e5	1.25e6	1.93e6	inactive
65	Cpr76Bb	DRSC25530	6.82e5	8.98e5	1.05e6	1.23e6	inactive
66	lncRNA:CR32160	DRSC22904	4.31e5	1.07e6	9.99e5	2.05e6	inactive
67	CG2202	DRSC19841	3.23e5	2.42e5	2.17e6	1.72e6	inactive
68	CG2202	DRSC23452	6.52e5	7.11e5	6.00e5	8.47e5	inactive
69	CG3092	DRSC04336	7.87e5	6.11e5	1.00e6	1.09e6	inactive
70	CG3092	DRSC30054	9.13e5	1.03e6	1.39e6	8.74e5	inactive
71	MESK2	DRSC04258	2.86e5	2.75e5	2.05e6	1.56e6	inactive
72	MESK2	DRSC28508	2.02e5	4.21e5	8.81e5	1.21e6	inactive
73	Polr3K + Tcs1	DRSC05988	1.38e5	1.45e5	2.16e6	2.32e6	inactive
74	Polr3K + Tcs1	DRSC26790	4.61e5	2.67e5	4.44e5	5.49e5	inactive

12 entries from above, limited to “Renilla control light, replicate 1”:
Ekar [DRSC24931] = 9.14e5
st [DRSC11399] = 3.02e5
st [DRSC28257] = 8.33e5
Trap1 [DRSC05019] = 8.42e5
pncr003:2L (retired record) [DRSC22149] = 1.70e6
pncr003:2L (retired record) [DRSC29855] = 1.84e6
pncr003:2L (retired record) [DRSC39126] = 1.61e6
Rgk1 [DRSC05785] = 2.36e5
Rgk1 [DRSC05786] = 2.58e5
Rgk1 [DRSC07343] = 1.21e6
Rgk1 [DRSC23535] = 8.00e5
Rgk1 [DRSC25970] = 7.13e5
